Measured values: PubChem BioAssay AID1508600 (Functional Genomics Laboratory (NCATS/FGL), 2020)
The campaign covered roughly 53,000 sequences. About 3,700 (7%) were called active.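 The calls were made as follows: active = gene knockdowns whose robust z-score for IL-1 alpha signal is at least 2 or at most -2, so actives lie on both sides; inactive = the rest.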 Some of the results follow.

Assay: Components of the Cytosolic LPS Sensing Pathway: Gene Identification via Genome-wide siRNA Screen;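 also: robust z of the log signal after scaling to non-targeting control siRNA wells of the plate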
Details: RAW264.7 macrophages, IL-1a HTRF, actives lie on both sides, screened at 100 nM (by protocol), cells primed 5 h with Pam3CSK4 first
Method in brief: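 Knockdown: 100 nM siRNA, 48h, RAW264.7. Stimulation: Pam3CSK4 5 h, then LipidA via TransIT-TKO 24 h. Output: supernatant IL-1a HTRF, negative-control-normalized, log robust z-score; viability by CellTiter-Glo.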

Row | Sequence | z-score
1 | GGCAGCAGAGAAGAAAGCCTT against Pld3 | active: -3.16
2 | GGAGAUGGAGCAGGAAGAGTT against Klhl22 | inactive: -0.419
3 | GGUGGAAGUUUUCAGUGGCTT against Csrnp1 | inactive: 0.727
4 | GCUUAGAAUCUCUGGACAATT against Rnf168 | active: 3.21
5 | GGCAAACAGAGAGAAUACGTT against Il22ra1 | inactive: -1.04
6 | GGGUAUGAGCAUAAAAUAATT against Il16 | inactive: -1.2
7 | GGCAGACAACGUGUCACCUTT against Aldh1a3 | inactive: -0.883
8 | GGGCCAUGCAAUCAUCAAGTT against Tlnrd1 | inactive: 0.353
9 | CCCGGGAAUAAAUAAAGGCTT against Haglr | inactive: -0.308
10 | CCGCUUUUGUCAAGUUUUCTT against Asap1 | active: 2.65
11 | GGGACUGUAAUGUUGACACTT against Olfr560 | inactive: -0.863
12 | CGGACUUGUUUUUUAGUCUTT against Tnrc18 | inactive: 0.164
13 | GAGAAACCUGCCUCAUCUCTT against Spata3 | inactive: -0.0842
14 | GCCGUUUGGUUUCGAACUUTT against Mboat2 | inactive: 1.17
15 | GCUUUGGAACCUCCGAAUGTT against Ddb2 | inactive: 1.05
16 | GGUAGACUUGAAGAAGUCATT against Mief1 | inactive: -0.538
17 | CCUAUCUCAUACCUACAUGTT against Resf1 | inactive: -0.979
18 | UUUUUUCUGGUUCACUUCATT against Olfr177 | inactive: 0.00452
19 | GCAAACUCGGACUUUCAAATT against Lamtor3 | inactive: 0.443
20 | GGUGUAGGAAGAAUGUUUATT against Pfdn1 | inactive: -0.448
21 | GGUACGAGUGAUCGUACUUTT against 5330438I03Rik | inactive: 0.54
22 | GGGUUUCUUACUGAAGAAATT against Mindy2 | inactive: -1.43

Row | Sequence | z-score
23 | GCCCAAUCAAAAAAUGGUGTT against Zyx | inactive: -0.0505
24 | GGAGUAGCUGUUCUAAUUGTT against Scamp5 | inactive: -1.65
25 | CGUAGCUUAAUCUGGCAGATT against Aldh1a7 | inactive: 0.0971
26 | GCAGAGAUUUAUGAAGCAUTT against Tbp | inactive: 0.274
27 | CACUAGUUGCUGGUCUUACTT against Pdxdc1 | inactive: 0.167
28 | GUAAAUCCAUCUCUCUAGCTT against Cyp3a16 | inactive: 1.54
29 | GGGAGUGAAUCAUUAUCUUTT against Tbl1xr1 | inactive: 0.203
30 | GGCCCAAAAACAGGUAAAGTT against Adrb1 | inactive: -0.129
31 | GGAACUGGAGAAGAAAUUUTT against Sp100 | inactive: 0.309
32 | GCAGCUAGUAUCCAGGCUATT against Ifrd1 | inactive: -0.776
33 | GGACUUCAUGACCACCUAUTT against Ctsf | inactive: 0.136
34 | CGAGGUGACCUACAAGAUUTT against Csdc2 | inactive: -0.582
35 | CUCAGGAAAUAGGCCCAGATT against A530064D06Rik | inactive: 1.18
36 | GGAUAUCAUUGUGCCCACUTT against Olfr920 | inactive: -0.334
37 | GGAGAUAUCUGGUAUACCCTT against Bace2 | inactive: -0.386
38 | GGACAUGUGUGCAAAUCCATT against Slc35f3 | inactive: -0.8
39 | GCAGACAGAAGAACACCAGTT against 1700024G13Rik | inactive: -0.177
40 | GGGAGGAAGGAAGAGUAUUTT against Itga4 | inactive: -0.984
41 | GGAGGAAUUUCAAAUACUATT against A530032D15Rik | inactive: 0.853
42 | GCCCUCCUUAUAGCUUAAUTT against Asic3 | active: -2.2
43 | GGCCUGCCAGAUAUGAAAATT against Ces2c | inactive: 1.97
44 | GGUAAAAUACCUAAGAACCTT against Pnma2 | inactive: 1.52

Row | Sequence | z-score
45 | GGGACUGUCUCCAAGACUCTT against Nkx2-9 | inactive: 0.121
46 | GGAAAGUGAUCCAGAAAUGTT against Olfr1026 | inactive: -0.781
47 | GGAUGGGUCCAUUGAGCCATT against Lrpap1 | inactive: -0.327
48 | CGAAGCUGGUUUACCAAAATT against Gna14 | inactive: -0.218
49 | GGUGCUUCCAACUUCACAGTT against Bcorl1 | inactive: -0.00398
50 | GGUAAUUAUGCUGCUUAUGTT against Phf20 | inactive: -0.457
51 | GGCUUAAGUCUACCGAACUTT against Rpp25l | inactive: -1.41
52 | GGGUCAUCCACUUUGUCAGTT against Fam177a | inactive: -0.584
53 | GGAUCACCAGACCUUUUUCTT against St7l | inactive: -1.94
54 | GGUAUCCUGAGUUUCAGCCTT against E230015B07Rik | inactive: -1.15
55 | GCUGUGUGACCAGCUGUUGTT against Krtap9-1 | inactive: 0.44
56 | GCGAAAUCCUGGGCUACUCTT against Dyrk4 | inactive: -0.32
57 | CCAAAGGUUACCAGGAAGCTT against Pcsk4 | inactive: 0.124
58 | GGAUCACUCUAAUUCAGAUTT against Fcamr | inactive: 1.93
59 | GGGAUGUCAGCAAUCUAAATT against Pmfbp1 | inactive: -0.2
60 | GGAAGACGUAAAGCUUUCUTT against Olfr1006 | inactive: 0.593
61 | CUUCGUAGCAGUCAUCCUUTT against Bcl2 | inactive: 0.545
62 | CCUCAGAUUGCCAAAAGUUTT against Tnip1 | inactive: -1.05
63 | GGUCCAAGUAAUGAACUCATT against Olfr155 | inactive: -1.19
64 | GGCACAGCUGGAUGAAGAATT against Gucy1b1 | inactive: -0.557
65 | GGGUGAUAUGGACUAUAGGTT against Cd1d2 | inactive: 0.0215
66 | CCUCUAAAGUCCUCAAUAGTT against Myoz2 | inactive: 0.377

A second format for part of the listing above.

| Row | Sequence | z-score |
| --- | --- | --- |
| 3 | GGUGGAAGUUUUCAGUGGCTT against Csrnp1 | inactive: 0.727 |
| 14 | GCCGUUUGGUUUCGAACUUTT against Mboat2 | inactive: 1.17 |
| 15 | GCUUUGGAACCUCCGAAUGTT against Ddb2 | inactive: 1.05 |
| 25 | CGUAGCUUAAUCUGGCAGATT against Aldh1a7 | inactive: 0.0971 |

(continued)

Row | Sequence | z-score
67 | GCUAUCAUGAAGCUAAAUGTT against Igf2bp1 | inactive: 0.267
68 | GCUAAUUCCAAGAAAGAAGTT against Lifr | inactive: -0.326
69 | GAGCGAACAUGUGUUUUACTT against H4c8 | inactive: 0.56
70 | GGCGGCUCCUUUCAACUUCTT against Cfb | inactive: 0.774
71 | CGGGUCCAUUAACAAAGCUTT against Bmp1 | inactive: -1.62
72 | GGAUCCAGGAGUAUGAGAATT against Atp5h | inactive: 0.585
73 | GGGCUACGGACAUUUCAUUTT against Pcare | inactive: 0.294
74 | GGCUGCAUUUUAAAACCGUTT against Prdm1 | inactive: 0.358
75 | CCUUUUUGAGGAAUUUGGATT against Scaf8 | inactive: -0.0964
76 | GGAGAAGAUGAAGUUGAAGTT against Nudt21 | inactive: -1.52
77 | GCAACGGAGACUUCAGUAATT against Zbtb39 | inactive: 0.569
78 | CCACCACAGCACCGGAUAATT against Mrgprb3 | inactive: 0.278
79 | GGAUUCAACAGAUUUAGUGTT against Clcn1 | inactive: 1.79
80 | GGCUUCAUUAUCUGUUCUGTT against Olfr1442 | inactive: -0.205
81 | GGUAGAAAACAUAAAUGGUTT against Sec16a | inactive: 1.71
82 | GGAGCUUCUUAAUAACUUUTT against Xpo6 | inactive: -0.132
83 | GGUAAACAGAAUAGAAUCCTT against Lcmt1 | inactive: 0.622
84 | CCCAAAGAGAAAUUUCUAGTT against Meltf | inactive: 0.801
85 | GGCUCUGAACAGCAUUGACTT against Mdfi | inactive: -0.521
86 | CCUCUAUGACUGGUACAGGTT against Ttyh3 | inactive: -1.2
87 | GGACGACAAAUAGAAUUCUTT against Odf1 | inactive: 1.57
88 | GGGAUUGCUAUGUGCUUAGTT against As3mt | inactive: -0.265

Row | Sequence | z-score
89 | GGAAAAGUUUGAAACCAAATT against Pmpca | inactive: 0.126
90 | GGAAGAAGAACUGAAGACATT against Ctnnbl1 | active: 2.22
91 | GGAAUACAAAGAUAGCUUCTT against Atrn | inactive: 0.786
92 | GGCUGACGAAUGACAGUUGTT against Katnal2 | inactive: 0.68
93 | GGCAGAAGUCCAACUUCUUTT against Pirt | inactive: -0.363
94 | CCCAAUUCGAUUUCUGCCGTT against Rnf11 | inactive: -0.77
95 | GCAAAUAAUGACGUGGCUATT against Rmi1 | inactive: 0.101
96 | GGAGUAUGAGAUGCAGUGUTT against Nat9 | inactive: -0.207
97 | GCAGCAAGCUGAAAAAGAGTT against Cstl1 | inactive: 0.237
98 | GCUACUUCAUUCCCGUGGCTT against Slc29a1 | inactive: 0.523
99 | CGUGAUUUCAUGCUGUGGCTT against Tal2 | active: -2.19
100 | GACACCAAAGUCUUUGAGUTT against Olfr315 | inactive: -0.989
101 | CCACUUUCAACCUGACCGUTT against Pcdhac2 | inactive: 0.345
102 | GCUGAUGUUAUUUAACAUGTT against Tas2r124 | inactive: 1.33
103 | GGUACUAUGAAGACUUAGATT against Nup214 | inactive: -1.33
104 | GGCAAUAGAAUCAAGAUUUTT against C130021I20Rik | inactive: -0.172
105 | GGUUGUGCAAGAGUAUGAATT against Nphs2 | inactive: 0.316
106 | GCCCUUACCUUGUAAGUUCTT against Sln | inactive: 0.0766
